PMC7244013
Results are given in words; binding and its absence hold for the method and conditions named. Binding seen in cells or lysates may run through a third protein.

Sequences of proteins named here, by UniProt entry; tags and fusion partners are left off. A change or cut given only in a name is not applied to a line headed by its entry.
UniProt P09038: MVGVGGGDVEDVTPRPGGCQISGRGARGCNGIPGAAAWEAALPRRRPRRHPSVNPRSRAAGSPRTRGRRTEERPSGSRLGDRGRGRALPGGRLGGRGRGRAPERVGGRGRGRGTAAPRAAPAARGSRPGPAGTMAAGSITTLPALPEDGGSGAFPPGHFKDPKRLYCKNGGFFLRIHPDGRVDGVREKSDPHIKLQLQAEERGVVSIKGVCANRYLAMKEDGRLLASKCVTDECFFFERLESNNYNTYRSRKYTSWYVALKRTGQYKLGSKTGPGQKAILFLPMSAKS
UniProt P05230: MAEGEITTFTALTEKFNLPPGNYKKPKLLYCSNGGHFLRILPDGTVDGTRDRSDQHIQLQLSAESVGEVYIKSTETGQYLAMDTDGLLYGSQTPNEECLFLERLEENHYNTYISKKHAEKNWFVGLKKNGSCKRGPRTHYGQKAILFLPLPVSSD

Assays:
myc-tagged FGF-2 (human) = myc-tagged FGF-2 (human) (UniProt P09038); experiment: co-IP; HEK293T co-transfected with PLAC1 and one of six C-terminally myc-tagged FGFs; IP with anti-myc antibody, mouse serum as control; Western blot for PLAC1
myc-tagged FGF-1 (human) = myc-tagged FGF-1 (human) (UniProt P05230); experiment: as above

B1: PLAC1 (placenta enriched 1) (protein, UniProt Q9HBJ0 23-212)
chain: QSPMTVLCSIDWFMVTVHPFMLNNDVCVHFHELHLGLGCPPNHVQPHAYQFTYRVTECGIRAKAVSQDMVIYSTEIHYSSKGTPSKFVIPVSCAAPQKSPWLTKPCSMRVASKSRATAQKDEKCYEVFSLSQSSQRPNCDCPPCVFSEEEHTQVPCHQAGAQEAQPLQPSHFLDISEDWSLHTDDMIGSM
In the case of B1, the binding (myc-tagged FGF-2 (human)) is reported as “no binding” and the binding (myc-tagged FGF-1 (human)) is reported as “no binding”.
